Results: the supplement of paper PMC10849652
The other results are listed elsewhere or left out.

Chains of the proteins cited; added tags and fusions are not shown. Lines headed by an entry give the natural chain unless they say otherwise; changes in a name come on top.
UniProt Q9NP55: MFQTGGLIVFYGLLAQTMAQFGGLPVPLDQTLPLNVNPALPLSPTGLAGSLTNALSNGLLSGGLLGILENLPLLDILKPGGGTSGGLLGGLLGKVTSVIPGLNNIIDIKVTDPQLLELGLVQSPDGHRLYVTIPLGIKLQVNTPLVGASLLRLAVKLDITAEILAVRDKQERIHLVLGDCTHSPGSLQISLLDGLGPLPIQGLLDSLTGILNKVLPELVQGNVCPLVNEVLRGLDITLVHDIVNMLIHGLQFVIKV
UniProt O60513: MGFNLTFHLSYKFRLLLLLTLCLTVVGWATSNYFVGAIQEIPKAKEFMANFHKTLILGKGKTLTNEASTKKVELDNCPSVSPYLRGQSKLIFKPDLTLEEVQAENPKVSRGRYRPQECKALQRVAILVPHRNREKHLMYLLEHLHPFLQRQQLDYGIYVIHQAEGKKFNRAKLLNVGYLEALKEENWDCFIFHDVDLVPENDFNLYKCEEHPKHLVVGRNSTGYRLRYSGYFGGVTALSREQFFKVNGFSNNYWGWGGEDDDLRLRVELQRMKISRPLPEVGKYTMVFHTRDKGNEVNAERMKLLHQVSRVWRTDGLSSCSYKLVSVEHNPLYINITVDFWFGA
UniProt O95415: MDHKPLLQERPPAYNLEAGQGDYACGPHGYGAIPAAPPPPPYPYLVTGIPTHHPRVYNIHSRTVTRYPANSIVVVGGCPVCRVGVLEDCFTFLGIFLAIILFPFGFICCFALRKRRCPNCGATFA
UniProt Q5T6C5: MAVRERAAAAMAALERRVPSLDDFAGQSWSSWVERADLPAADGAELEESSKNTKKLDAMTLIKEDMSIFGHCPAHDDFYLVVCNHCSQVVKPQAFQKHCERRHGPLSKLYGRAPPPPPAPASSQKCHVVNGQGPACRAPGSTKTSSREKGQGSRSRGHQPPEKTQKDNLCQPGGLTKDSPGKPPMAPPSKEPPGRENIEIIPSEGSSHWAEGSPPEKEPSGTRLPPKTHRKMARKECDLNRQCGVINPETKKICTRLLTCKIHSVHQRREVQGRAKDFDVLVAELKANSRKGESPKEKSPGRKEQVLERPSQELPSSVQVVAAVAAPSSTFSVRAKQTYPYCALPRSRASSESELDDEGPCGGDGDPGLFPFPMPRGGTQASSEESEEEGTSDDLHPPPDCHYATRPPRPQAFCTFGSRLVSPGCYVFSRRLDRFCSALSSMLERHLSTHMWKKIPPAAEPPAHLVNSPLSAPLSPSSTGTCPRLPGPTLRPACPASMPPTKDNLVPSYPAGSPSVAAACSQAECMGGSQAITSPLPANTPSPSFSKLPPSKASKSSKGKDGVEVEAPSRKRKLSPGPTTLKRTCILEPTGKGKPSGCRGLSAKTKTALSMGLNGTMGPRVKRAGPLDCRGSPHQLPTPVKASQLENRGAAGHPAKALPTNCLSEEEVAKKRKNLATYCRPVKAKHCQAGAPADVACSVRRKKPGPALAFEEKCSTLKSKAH
UniProt Q9H7T9: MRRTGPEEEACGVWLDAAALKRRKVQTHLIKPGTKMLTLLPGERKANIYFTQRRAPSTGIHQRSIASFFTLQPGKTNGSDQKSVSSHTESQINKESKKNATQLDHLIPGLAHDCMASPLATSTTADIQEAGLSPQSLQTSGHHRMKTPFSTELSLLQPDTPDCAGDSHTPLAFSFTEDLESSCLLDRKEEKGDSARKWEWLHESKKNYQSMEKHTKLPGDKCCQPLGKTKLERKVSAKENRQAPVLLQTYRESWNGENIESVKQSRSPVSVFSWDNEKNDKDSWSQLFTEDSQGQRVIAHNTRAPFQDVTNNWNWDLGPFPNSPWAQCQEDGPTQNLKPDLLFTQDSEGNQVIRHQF
UniProt Q96FH0: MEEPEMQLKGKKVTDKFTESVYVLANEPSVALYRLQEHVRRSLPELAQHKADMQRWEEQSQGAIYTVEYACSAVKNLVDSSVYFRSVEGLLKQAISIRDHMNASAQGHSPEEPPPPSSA
UniProt Q12983, whole entry, looked up: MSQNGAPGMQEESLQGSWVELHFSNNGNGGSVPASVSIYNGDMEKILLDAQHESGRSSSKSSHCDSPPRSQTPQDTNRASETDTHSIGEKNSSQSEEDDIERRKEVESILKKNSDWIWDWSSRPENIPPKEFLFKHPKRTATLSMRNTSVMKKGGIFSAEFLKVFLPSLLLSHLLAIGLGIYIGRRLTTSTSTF
UniProt P25440, whole entry, looked up: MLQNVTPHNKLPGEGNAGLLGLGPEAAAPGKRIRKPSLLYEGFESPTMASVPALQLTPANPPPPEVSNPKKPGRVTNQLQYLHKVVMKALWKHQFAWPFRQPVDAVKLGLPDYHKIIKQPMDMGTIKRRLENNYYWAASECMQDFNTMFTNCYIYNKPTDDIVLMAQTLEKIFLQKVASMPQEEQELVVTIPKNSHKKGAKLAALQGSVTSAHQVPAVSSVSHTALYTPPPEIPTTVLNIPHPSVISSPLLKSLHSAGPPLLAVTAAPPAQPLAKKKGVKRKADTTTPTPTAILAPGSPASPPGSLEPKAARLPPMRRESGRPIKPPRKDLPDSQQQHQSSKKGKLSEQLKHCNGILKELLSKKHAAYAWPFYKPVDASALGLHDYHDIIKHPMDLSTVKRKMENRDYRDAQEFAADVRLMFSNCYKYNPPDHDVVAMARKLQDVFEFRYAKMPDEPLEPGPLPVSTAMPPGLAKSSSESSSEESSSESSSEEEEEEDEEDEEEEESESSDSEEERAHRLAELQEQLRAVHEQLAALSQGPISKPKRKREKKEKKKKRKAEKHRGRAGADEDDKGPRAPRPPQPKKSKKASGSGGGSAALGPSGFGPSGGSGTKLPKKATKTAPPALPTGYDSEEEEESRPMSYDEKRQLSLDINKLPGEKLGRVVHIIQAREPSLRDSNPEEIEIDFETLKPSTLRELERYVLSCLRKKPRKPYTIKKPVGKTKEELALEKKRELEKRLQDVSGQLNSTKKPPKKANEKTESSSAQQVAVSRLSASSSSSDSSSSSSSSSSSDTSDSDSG
UniProt O14977: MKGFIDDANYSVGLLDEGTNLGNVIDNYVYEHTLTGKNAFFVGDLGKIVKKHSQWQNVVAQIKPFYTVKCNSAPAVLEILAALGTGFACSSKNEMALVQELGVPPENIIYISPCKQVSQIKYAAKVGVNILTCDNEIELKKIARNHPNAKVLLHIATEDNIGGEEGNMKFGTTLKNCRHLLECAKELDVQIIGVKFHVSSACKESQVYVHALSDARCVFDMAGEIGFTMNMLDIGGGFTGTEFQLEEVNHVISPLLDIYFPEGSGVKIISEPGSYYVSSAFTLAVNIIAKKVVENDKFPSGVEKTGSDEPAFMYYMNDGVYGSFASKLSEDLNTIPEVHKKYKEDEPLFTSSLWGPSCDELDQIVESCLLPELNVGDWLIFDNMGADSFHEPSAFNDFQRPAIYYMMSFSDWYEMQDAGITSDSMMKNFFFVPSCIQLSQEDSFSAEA
UniProt Q9NWD9: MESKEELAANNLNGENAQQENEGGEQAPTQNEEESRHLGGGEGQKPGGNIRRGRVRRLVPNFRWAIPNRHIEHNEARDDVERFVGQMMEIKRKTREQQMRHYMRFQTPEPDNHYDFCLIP
UniProt P11274: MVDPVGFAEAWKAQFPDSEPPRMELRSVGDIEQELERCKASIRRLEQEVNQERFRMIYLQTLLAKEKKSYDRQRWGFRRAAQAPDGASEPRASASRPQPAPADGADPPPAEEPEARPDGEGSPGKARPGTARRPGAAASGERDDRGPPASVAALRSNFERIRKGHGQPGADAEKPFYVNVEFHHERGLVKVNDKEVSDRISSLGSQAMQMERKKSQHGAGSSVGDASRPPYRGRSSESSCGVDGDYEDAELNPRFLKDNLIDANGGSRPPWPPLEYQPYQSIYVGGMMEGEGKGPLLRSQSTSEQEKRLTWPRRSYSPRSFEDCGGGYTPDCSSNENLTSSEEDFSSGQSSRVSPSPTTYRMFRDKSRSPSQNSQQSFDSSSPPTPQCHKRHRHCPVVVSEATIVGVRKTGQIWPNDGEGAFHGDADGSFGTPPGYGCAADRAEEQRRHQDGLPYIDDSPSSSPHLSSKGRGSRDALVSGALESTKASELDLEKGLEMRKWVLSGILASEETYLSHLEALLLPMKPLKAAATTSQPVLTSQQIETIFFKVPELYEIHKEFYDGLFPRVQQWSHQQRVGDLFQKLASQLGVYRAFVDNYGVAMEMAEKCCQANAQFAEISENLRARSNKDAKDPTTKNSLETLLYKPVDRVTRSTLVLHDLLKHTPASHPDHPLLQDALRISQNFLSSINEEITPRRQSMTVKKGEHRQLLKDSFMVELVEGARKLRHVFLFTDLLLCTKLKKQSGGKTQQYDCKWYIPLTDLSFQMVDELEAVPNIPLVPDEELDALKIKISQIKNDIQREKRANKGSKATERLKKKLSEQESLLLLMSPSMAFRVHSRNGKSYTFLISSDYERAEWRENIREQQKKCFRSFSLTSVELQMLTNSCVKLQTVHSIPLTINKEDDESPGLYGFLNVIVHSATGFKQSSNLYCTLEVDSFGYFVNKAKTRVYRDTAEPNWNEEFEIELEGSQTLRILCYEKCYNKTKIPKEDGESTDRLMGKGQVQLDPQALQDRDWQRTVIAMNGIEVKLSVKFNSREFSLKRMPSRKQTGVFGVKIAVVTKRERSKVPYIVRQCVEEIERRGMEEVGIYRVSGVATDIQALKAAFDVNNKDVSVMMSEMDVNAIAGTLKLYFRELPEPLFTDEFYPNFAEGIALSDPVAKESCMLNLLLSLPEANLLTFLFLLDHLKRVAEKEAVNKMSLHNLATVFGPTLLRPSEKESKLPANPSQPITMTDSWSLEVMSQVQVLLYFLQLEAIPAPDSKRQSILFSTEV
UniProt O60238, whole entry, looked up: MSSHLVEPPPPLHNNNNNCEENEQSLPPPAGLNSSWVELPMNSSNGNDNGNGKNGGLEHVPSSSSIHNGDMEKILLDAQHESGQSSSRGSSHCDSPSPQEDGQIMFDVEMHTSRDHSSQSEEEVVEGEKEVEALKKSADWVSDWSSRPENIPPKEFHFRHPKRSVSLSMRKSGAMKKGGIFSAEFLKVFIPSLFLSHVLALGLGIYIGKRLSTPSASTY
UniProt Q7Z5W3: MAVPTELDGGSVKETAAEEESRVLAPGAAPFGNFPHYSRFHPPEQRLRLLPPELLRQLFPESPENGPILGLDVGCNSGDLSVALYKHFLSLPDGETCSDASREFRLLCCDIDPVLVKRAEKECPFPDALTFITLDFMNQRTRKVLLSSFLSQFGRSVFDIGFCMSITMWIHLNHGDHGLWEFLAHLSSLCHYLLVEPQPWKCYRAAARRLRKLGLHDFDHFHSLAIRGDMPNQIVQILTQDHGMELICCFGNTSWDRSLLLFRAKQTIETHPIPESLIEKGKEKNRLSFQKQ
UniProt Q9H6S1, whole entry, looked up: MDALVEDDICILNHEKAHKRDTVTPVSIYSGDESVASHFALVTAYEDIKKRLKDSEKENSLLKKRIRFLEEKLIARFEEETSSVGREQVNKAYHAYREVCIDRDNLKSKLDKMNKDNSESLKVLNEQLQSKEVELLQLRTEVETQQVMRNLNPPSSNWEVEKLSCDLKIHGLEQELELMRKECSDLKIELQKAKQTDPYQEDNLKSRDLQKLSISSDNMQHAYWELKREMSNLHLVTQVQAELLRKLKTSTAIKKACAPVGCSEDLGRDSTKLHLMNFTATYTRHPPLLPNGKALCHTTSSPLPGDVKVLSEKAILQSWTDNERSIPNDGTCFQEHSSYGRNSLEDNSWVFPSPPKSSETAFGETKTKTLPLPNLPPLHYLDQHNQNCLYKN
UniProt Q9BYG0: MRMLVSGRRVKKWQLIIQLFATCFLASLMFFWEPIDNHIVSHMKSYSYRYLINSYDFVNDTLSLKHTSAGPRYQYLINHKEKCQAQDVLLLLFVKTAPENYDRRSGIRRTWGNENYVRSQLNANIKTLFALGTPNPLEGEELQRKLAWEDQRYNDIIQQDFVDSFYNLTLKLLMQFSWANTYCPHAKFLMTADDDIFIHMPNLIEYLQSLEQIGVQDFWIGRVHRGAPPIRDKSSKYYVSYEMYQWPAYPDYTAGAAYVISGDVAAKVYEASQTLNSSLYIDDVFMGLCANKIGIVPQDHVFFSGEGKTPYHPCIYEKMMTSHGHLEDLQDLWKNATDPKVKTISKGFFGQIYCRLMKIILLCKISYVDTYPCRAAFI
UniProt Q96L58: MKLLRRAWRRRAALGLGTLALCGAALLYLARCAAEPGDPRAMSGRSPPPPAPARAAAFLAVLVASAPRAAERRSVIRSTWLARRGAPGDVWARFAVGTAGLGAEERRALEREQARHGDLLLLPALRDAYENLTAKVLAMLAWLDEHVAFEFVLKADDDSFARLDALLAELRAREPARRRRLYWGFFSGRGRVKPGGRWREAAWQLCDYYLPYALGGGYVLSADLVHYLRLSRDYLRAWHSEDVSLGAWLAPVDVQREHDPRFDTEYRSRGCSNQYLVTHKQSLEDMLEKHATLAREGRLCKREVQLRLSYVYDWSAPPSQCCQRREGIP

Legend:
Test in all cases: log2 fold change, soluble protein after heating vs DMSO (PISA); higher = thermal stabilisation; K562 cells, 10 uM, 30 min; active = over 0.2 and 3.5 SD of the protein, either way, in both replicates (recomputed)
[1] = compound: C1=CC(=C(C=C1Cl)C2=NC3=NC=CN=C3C(=N2)NC4=CC=NC=C4)F
In short: (§1)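 K562 cells at 2×10^6 cells/mL were treated with 10 μM compound for 30 min. Aliquots were heated for 3 min across 48°C-58°C, pooled, and extracted in PBS with 0.5% NP-40 at 4°C; soluble protein was the supernatant after 21,000xg for 90 min. Soluble protein was quantified by TMTpro 16plex LC-MS/MS with channel sums equalised, and reported as log2 fold change in thermal stability against DMSO controls, with values from duplicates.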

[2] = compound: C1=CC2=NC=CN=C2C=C1/C=C/3\C(=O)NC(=O)S3
In short: as §1

[3] = compound: C1=CC=C(C=C1)C2=NC(=C(N2)C3=CC=NC=C3)C4=CC(=C(C=C4)Cl)O
In short: as §1

erlotinib = compound: C#Cc1cccc(Nc2ncnc3cc(OCCOC)c(OCCOC)cc23)c1 [erlotinib]
In short: as §1

[4] = compound: C1=CC(=CC=C1C2=NC3=C(N2)C=C(C=C3)C(=O)N)OC4=CC=C(C=C4)Cl
In short: as §1

[5] = compound: C/C(=N\NC(=O)C1=CC(=CC=C1)S(=O)(=O)N2CCOCC2)/C3=C(C=CC(=C3)Cl)O
In short: as §1

[6] = compound: C1=CC2=C(C=CC(=C2)/C=C\3/C(=O)NC(=NCC4=CC=CS4)S3)N=C1
In short: as §1

[7] = compound: C1=CC=C2C(=C1)C3=NNC4=CC=CC(=C43)C2=O
In short: as §1

[8] = compound: C1CCN(C1)C(=O)NC2=CC=CC(=C2)NC3=NC=C(C(=N3)NCCC4=CN=CN4)Br
In short: as §1

[9] = compound: C1CN(CCC1(CC2=CC=C(C=C2)Cl)N)C3=NC=NC4=C3C=CN4
In short: as §1

Measured: log2 fold change

BORA (UniProt Q6PGQ7)
inactive: [1] -0.552 | [2] 0.286

BPIFA1 (UniProt Q9NP55)
inactive: [2] -0.087 | [3] -0.211

BNIP2 (UniProt H7C096)
inactive: erlotinib -0.055 | [4] 0.144 | [2] -0.101

BRMS1 (UniProt Q9HCU9)
inactive: [1] 0.075 | [6] 0.09 | [7] -0.041 | [8] 0.024 | [9] 0.119
active: [5] -0.656

BCL7C isoform 2 (UniProt Q8WUZ0)
inactive: erlotinib -0.163 | [1] -0.452 | [4] 0.143 | [2] 0.074

Quoted from the results shown (two entries):
BORA (UniProt Q6PGQ7)
inactive: [1] -0.552 | [2] 0.286

BPIFA1 (UniProt Q9NP55)
inactive: [2] -0.087 | [3] -0.211

Continuation.

B4GALT4 (UniProt O60513)
inactive: [2] -0.032 | [3] 0.177

BRI3 (UniProt O95415)
inactive: [2] -0.23

BCS1L, A0A2R8Y7T3
inactive: [2] -0.358

ATXN7L2 (UniProt Q5T6C5)
inactive: [1] 0.134

BOD1 (UniProt Q96IK1)
inactive: erlotinib -0.036 | [4] 0.039 | [3] 0.043

BPNT1 (UniProt A6NF51)
inactive: erlotinib 0.023 | [1] -0.051 | [4] -0.077 | [2] 0.162 | [3] 0.023 | [8] -0.045 | [9] -0.042

BCAS3 isoform 8 (UniProt Q9H6U6)
inactive: erlotinib -0.099 | [5] -0.036 | [4] 0.186 | [6] 0 | [7] 0.132 | [8] -0.016 | [9] 0.107

AUNIP isoform 2 (UniProt Q9H7T9)
inactive: erlotinib -0.023 | [5] 0.066 | [4] 0.297 | [6] 0.083 | [7] 0.027 | [8] 0.041 | [9] 0.066

Two records picked at random from the list so far:
B4GALT4 (UniProt O60513)
inactive: [2] -0.032 | [3] 0.177

BPIFA1 (UniProt Q9NP55)
inactive: [2] -0.087 | [3] -0.211

Remaining list, next part.

BCOR (UniProt Q6W2J9)
inactive: erlotinib 0.1 | [1] -0.134 | [4] -0.124 | [2] 0.025 | [8] 0.325 | [9] -0.024

ATXN2 (UniProt F8W0B5)
inactive: erlotinib 0.013 | [5] -0.026 | [4] 0.052 | [6] -0.087 | [3] -0.002 | [7] -0.006

BORCS8 (UniProt Q96FH0)
inactive: [3] 0.003 | [8] -0.059 | [9] -0.098

BPTF (UniProt Q12830)
inactive: erlotinib 0.079 | [1] 0.05 | [4] -0.102

BAHD1 (UniProt Q8TBE0)
inactive: erlotinib 0.063 | [4] 0.019

BNIP3 (UniProt Q12983)
inactive: [5] -0.021 | [1] -0.086 | [6] 0.098 | [2] -0.035 | [3] -0.023 | [7] -0.107 | [8] -0.056 | [9] 0.023

BFAR (UniProt Q9NZS9)
inactive: [1] 0.087

BRD2 isoform 2 (UniProt P25440)
inactive: erlotinib -0.552 | [4] 0.204 | [6] -0.073 | [2] 0.367 | [7] 0.137 | [8] -0.08 | [9] -0.002

AZIN1 (UniProt O14977)
inactive: [3] -0.021

ATRX (UniProt P46100)
inactive: [5] 0.016 | [6] -0.153 | [7] -0.076

BEX4 (UniProt Q9NWD9)
inactive: erlotinib -0.084 | [4] -0.028 | [2] -0.045

AURKB isoform 5 (UniProt Q96GD4)
inactive: [5] 0.086 | [6] -0.382 | [7] 1.08 | [8] 1.33 | [9] 0.1

BCR (UniProt P11274)
inactive: erlotinib -0.032 | [1] -0.525 | [4] -0.306 | [2] 0.023 | [3] -0.069 | [8] 0.007 | [9] -0.544

B3GALNT2 (UniProt Q8NCR0)
inactive: erlotinib 0.018 | [1] 0.055 | [4] 0.119 | [2] -0.082 | [3] 0.035 | [8] 0.243 | [9] -0.425

BNIP3L (UniProt O60238)
inactive: erlotinib 0.001 | [4] 0.056 | [3] -0.228 | [8] 0.035 | [9] 0.014

AVEN (UniProt Q9NQS1)
inactive: erlotinib 0.089 | [1] -0.08 | [4] -0.027 | [2] -0.059

BCDIN3D (UniProt Q7Z5W3)
inactive: [5] 0.155 | [6] 0.112 | [2] 0.088 | [7] 0.049 | [8] -0.188 | [9] 0.177

AZI2 (UniProt Q9H6S1)
inactive: erlotinib -0.039 | [4] -0.211 | [2] 0.009 | [3] -0.012 | [8] -0.025 | [9] 0.04

BRAF, A0A2R8Y8E0
active: [3] -0.987
inactive: erlotinib 0.073 | [5] 0.15 | [4] 0.083 | [6] -0.248 | [7] -0.047 | [8] -0.235 | [9] -0.26

B3GNT5 (UniProt Q9BYG0)
inactive: erlotinib 0.025 | [1] 0.015 | [4] 0.071 | [2] -0.006

BRCA1 isoform 7 (UniProt P38398)
inactive: erlotinib 0.312 | [4] -0.312 | [3] -0.222

BMP1 (UniProt P13497)
inactive: erlotinib -0.102 | [4] 0.215 | [2] 0.189

B3GALT6 (UniProt Q96L58)
inactive: erlotinib -0.269 | [4] -0.106 | [3] -0.113
